From ChEMBL document CHEMBL3988442, “University of Dundee, Small-Polar-MMV Screening Library” (2021).

Mtb growth Cornell: 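Whole-cell assay for inhibitors of Mycobacterium tuberculosis growth, labelled Cornell in the record; the read-out is not stated. The concentration is filed as 10 mM, unlikely as a test dose, so the dose is not known. Higher means stronger inhibition (inferred from two other growth screens of the library). Of about 53,000 compounds tested this way, about 900 (1.7%) reached 50% or more in at least one test.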
Mtb heat-shock: 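Assay on Mycobacterium tuberculosis, filed only as a heat shock assay from Cornell; the read-out is not stated. The concentration is filed as 10 mM, unlikely as a test dose, so the dose is not known. Direction is inferred from retests: higher values go with stronger inhibition. Of about 69,000 compounds tested this way, about 930 (1.4%) reached 50% or more in at least one test.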

Values are the deposited “Percent Effect”, in %.
The controls that fix the scale are not given in the record; negative values are as filed.
The compounds are a random part of those screened.
A dash means the value is not listed here; it may have been measured.

| Compound | Mtb growth Cornell | Mtb heat-shock |
|---|---|---|
| `O=C(O)C1CN(Cc2cnc(C3CCCCC3)nc2)CCO1` (stereo not given) | -61.4% | -24.37% |
| `COC(=O)c1sccc1S(=O)(=O)NCCc1ccoc1` | 39.87% | -21.69% |
| `COC(=O)C(NC(=O)C1CCCC1)c1cc(F)ccc1F` (stereo not given) | - | 0.181% |
| `O=C(Cc1ccc(Br)s1)NCC(=O)Nc1cn[nH]c1` | 4.968% | 8.089% |
| `COc1ccc(C(C)n2ccnc2-c2cc3n(n2)CCCNC3)cc1F` (stereo not given) | - | -27.5% |
| `O=C(O)C(F)(F)F.[H][C@@]12CN(c3ccccn3)C[C@@]1([H])N(CC(=O)N(C)C)C(=O)CO2` | -18.29% | -4.931% |
| `Cc1ccc2c(c1)c(CNC(=O)C1CCCN(CC(N)=O)C1)nn2C` (stereo not given) | 21.89% | -21.74% |
| `CCc1cnc(CN(C(C)=O)C2CCN(CC3(O)CCCCC3)C2)o1` (stereo not given) | -19.84% | -15.35% |
| `CCn1c(CN(C)C)nnc1C1CCN(Cc2ccc(Cl)cc2F)CC1` | 28.76% | -20.26% |
| `Cc1noc(C(C)C)c1C(=O)NCCN1CCOCC1` | - | -2.216% |
| `CN(C)C(=O)N1CCc2onc(C(=O)Nc3cccnc3)c2C1.O=C(O)C(F)(F)F` | - | -5.689% |
| `COc1ccccc1C1(CNc2nnc(C)c(C)c2C#N)CCOCC1` | -5.763% | -11.98% |
| `Cn1ccnc1SCC(=O)NCCC1CCCO1` (stereo not given) | -6.622% | -21.42% |
| `CC(Nc1ccc(CN2CCCC2=O)cc1)C(=O)N(C)CCC#N` (stereo not given) | - | 1.753% |
| `O=S(=O)(c1ccc(F)cc1)N1CCCC(c2nccs2)C1` (stereo not given) | 13.23% | -19.44% |
| `Cc1nc(CN(C)S(=O)(=O)c2ccccc2C(F)(F)F)no1` | - | 0.7558% |
| `CC(C)N(Cc1c[nH]nc1-c1ccc2c(c1)OCO2)Cc1nccn1C` | 2.211% | -19.46% |
| `COCC(=O)N1CCCC2(CCN(c3cncnc3)C2=O)C1` (stereo not given) | 2.369% | -11.94% |
| `CCOC(=O)c1ccc(S(=O)(=O)NCc2cccnc2N(C)C)cc1` | - | -31.54% |
| `COC[C@]1(O)CCN(Cc2cnc(N3CCOCC3)nc2)CC1(C)C` | 2.359% | 11.04% |
| `O=C(O)C(F)(F)F.O=C(O)C(F)(F)F.[H][C@@]12COC[C@]1([H])[C@@H](OCc1csc(C)n1)CN2c1ncc(CC)cn1` | -3.003% | -25.14% |
| `CC(NC(=O)NCCn1ccnc1)c1ccc2c(c1)OCCCO2` (stereo not given) | - | -10.08% |
| `O=C(O)C(F)(F)F.[H][C@@]12CN(Cc3ccccc3)CCC[C@]1(C(=O)O)CN(c1ncccn1)C2` | 26.58% | 11.85% |
| `CC(C)n1c(C2CCCN(CCS(C)(=O)=O)C2)nc2ccccc21` (stereo not given) | -14.57% | -3.969% |
| `Cc1nc(C)n(CC2CN(Cc3cccnc3)Cc3nccn3C2)n1.O=C(O)C(F)(F)F.O=C(O)C(F)(F)F` (stereo not given) | 1.684% | -9.769% |
| `Cc1cc(CN2CCCC2Cn2cncn2)no1` (stereo not given) | -0.2211% | 8.408% |
| `[H][C@]12CC[C@]([H])(CN(Cc3ccccc3C#N)C1)N(Cc1cscn1)C2=O` | - | -0.8126% |
| `Cc1nc[nH]c1CN(Cc1ccccc1)C1CC(C)(C)NC(C)(C)C1.O=C(O)CC(O)(CC(=O)O)C(=O)O` | -14.39% | 2.189% |
| `Cc1ccccc1[C@@H]1CN(CCOCCO)C[C@H]1C(=O)O` | - | -183.7% |
| `Cc1nc2cc(=O)[nH]n2c(C)c1CC(=O)NC(C)C` | - | -0.1861% |
| `Cc1nc(-c2cc(C(=O)NC(C)(C(=O)O)C(C)C)co2)cs1` (stereo not given) | 45.67% | 7.537% |
| `c1ccc(CN2CCN(Cc3cnc(C4CCCCO4)nc3)CC2)cc1` (stereo not given) | -7.301% | 9.116% |
| `O=C(NC(CC(F)(F)F)c1ccc(Cl)cc1)c1nc(=O)[nH][nH]1` (stereo not given) | 28.53% | 5.409% |
| `Cn1ccc(-c2cc(C(=O)N3CCC(O)CC3)c3ccccn23)n1` | -33.58% | 65.18% |
| `Cc1ccoc1C(=O)N1CCc2ncnc(-c3cnn(C)c3)c2CC1` | - | -30.84% |
| `COC1CCN(C(=O)c2csc(-c3ccccc3F)n2)CC1` | 10.08% | 19.58% |
| `CS(=O)(=O)NCC1CCCN(C(=O)COc2ccc(F)cc2)C1` (stereo not given) | 11.88% | 29.83% |
| `CC(=O)Nc1cccc2c1ccn2CC(=O)Nc1nc[nH]n1` | -0.1501% | 4.868% |
| `C[S+]([O-])CCNC(=O)N1CCN(c2cc(F)ccc2F)CC1` (stereo not given) | -21.32% | -5.804% |
| `COc1cc(N2CCn3cc(CNc4ccccn4)nc3C2)ncn1` | 13.29% | -18.78% |
| `CN(Cc1ccsc1)Cc1ccc(C2CCCCO2)o1` (stereo not given) | 12.53% | -23% |
| `O=S(=O)(NCCCN1CC=CC1)c1cncc(Cl)c1` | -5.142% | -16.58% |
| `Cc1ccn(Cc2nc(C(C)OCC(C)C)no2)c(=O)c1` (stereo not given) | -53.56% | -18.33% |
| `CCC[C@H]1CN(c2nccc(OC)n2)C[C@@H]1NS(=O)(=O)N(C)C` | -3.218% | -14.15% |
| `CS(=O)(=O)NC1CCN(C(=O)c2ccc(Br)cc2)C1` (stereo not given) | -1.748% | 46.75% |
| `COCc1nc(C(=O)NS(=O)(=O)c2c(C)c(C)cc(C)c2C)cs1` | - | -2.041% |
| `Cn1cc(CN2CCCn3cnc(COCc4ccco4)c3C2)cn1` | 0.188% | -3.927% |
| `CS(=O)(=O)N1CC[C@]2(C[C@@H](Oc3ccccn3)CO2)C1.O=C(O)C(F)(F)F` | -0.2769% | -16.91% |
| `CC(C)(C)c1ncc2c(n1)CN(C(=O)c1ccc(-n3cnnn3)cc1)C2` | 19.46% | -21.94% |
| `O=S(=O)(CC1CCCCO1)Nc1cnn(CC(F)F)c1` (stereo not given) | - | 15.47% |
| `CC(C(=O)N1CCc2ccccc2C1)n1cc(Br)cn1` (stereo not given) | 29% | -6.879% |
| `CCCc1noc(C2CCCCN2C(=O)C2CCCC2)n1` (stereo not given) | -38.4% | -11.95% |
| `[H][C@]12CN(CC=C(C)C)C[C@@]1(C(=O)O)CN(C(=O)c1ccc(CO)cc1)C2` | 22.99% | -7.888% |
| `CCOc1ccc(N(CCC#N)C(=O)c2ccc(SC)nc2)cc1` | -8.107% | 2.731% |
| `CCn1ccnc1C1CCN(C(=O)Nc2ccc(OC)cc2)CC1` | -10.19% | -19.98% |
| `Fc1ccccc1Sc1ccccc1CNC1=NCCN1.I` | 34.71% | 14.99% |
| `O=C(CNCCn1cccn1)NCC1(c2ccccc2)CCOCC1` | - | -2.868% |
| `OCCNc1nccc(-c2c[nH]nc2-c2ccncc2)n1` | -26.6% | -9.353% |
| `Cc1noc(C)c1CC(=O)N1CCCC(c2noc(C(C)C)n2)C1` (stereo not given) | 5.447% | 1.387% |
| `[H][C@@]12CCN(S(C)(=O)=O)[C@@]1([H])CCN2C(=O)c1cnoc1C` | -2.684% | 7.613% |
| `Cc1cnn(CC2CCCN2CC(=O)Nc2cc(C(C)C)no2)c1` (stereo not given) | - | 98.13% |
| `CCOc1ccc(NC(=O)NCCCN(C)S(C)(=O)=O)cc1C` | 30.17% | 1.082% |
| `CC(C)Oc1cccc(C(O)CNC(=O)CCc2ccncc2)c1` (stereo not given) | 31.72% | -17.02% |
| `COc1ccccc1-c1nnc([C@H]2CCN(C(C)=O)C2)o1` | - | -3.371% |
| `[H][C@@]12CS(=O)(=O)C[C@]1([H])N(C(=O)c1ccc(COC)o1)CCN2C(=O)CC` | -32.03% | 11.16% |
| `Cn1cnnc1S(=O)(=O)C1CCN(S(=O)(=O)c2ccccc2F)CC1` | -10.72% | -5.627% |
| `CCn1ncc2c1CN(C(=O)c1cc(C)oc1C)CC2COC.O=C(O)C(F)(F)F` (stereo not given) | 30.58% | 25.69% |